Data on 37 targets can be found in the supplement of paper PMC12819154, “High-throughput peptide-centric local stability assay extends protein–ligand identification to membrane proteins, tissues and bacteria” (Nature Structural & Molecular Biology, 2025).

By UniProt entry, the sequences of proteins in these tests, tags left out. Where a name states a change or a piece, a line headed by the entry shows the natural chain unless it says otherwise.
UniProt Q6UW68: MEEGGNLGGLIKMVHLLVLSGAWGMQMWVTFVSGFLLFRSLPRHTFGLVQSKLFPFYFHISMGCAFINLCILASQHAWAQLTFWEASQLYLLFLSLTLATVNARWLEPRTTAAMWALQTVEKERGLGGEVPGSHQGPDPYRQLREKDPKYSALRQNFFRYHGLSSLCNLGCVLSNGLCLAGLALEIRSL
UniProt Q6EEV6: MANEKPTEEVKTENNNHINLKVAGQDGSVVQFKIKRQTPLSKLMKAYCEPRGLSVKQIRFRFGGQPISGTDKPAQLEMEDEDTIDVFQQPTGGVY
UniProt Q6STE5, whole entry: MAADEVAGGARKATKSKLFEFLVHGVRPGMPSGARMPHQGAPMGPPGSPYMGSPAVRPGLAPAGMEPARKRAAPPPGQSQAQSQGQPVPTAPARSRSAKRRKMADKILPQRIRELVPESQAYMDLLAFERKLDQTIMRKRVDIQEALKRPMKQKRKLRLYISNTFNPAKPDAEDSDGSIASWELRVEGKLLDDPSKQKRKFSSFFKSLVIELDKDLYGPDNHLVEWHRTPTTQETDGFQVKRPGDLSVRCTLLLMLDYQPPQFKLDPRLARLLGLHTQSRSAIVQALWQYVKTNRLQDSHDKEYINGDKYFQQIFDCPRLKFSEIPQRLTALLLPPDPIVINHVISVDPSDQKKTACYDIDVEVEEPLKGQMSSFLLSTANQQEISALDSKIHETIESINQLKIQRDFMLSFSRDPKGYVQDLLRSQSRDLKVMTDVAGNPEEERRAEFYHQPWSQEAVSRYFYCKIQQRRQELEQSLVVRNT
UniProt Q6DHV7: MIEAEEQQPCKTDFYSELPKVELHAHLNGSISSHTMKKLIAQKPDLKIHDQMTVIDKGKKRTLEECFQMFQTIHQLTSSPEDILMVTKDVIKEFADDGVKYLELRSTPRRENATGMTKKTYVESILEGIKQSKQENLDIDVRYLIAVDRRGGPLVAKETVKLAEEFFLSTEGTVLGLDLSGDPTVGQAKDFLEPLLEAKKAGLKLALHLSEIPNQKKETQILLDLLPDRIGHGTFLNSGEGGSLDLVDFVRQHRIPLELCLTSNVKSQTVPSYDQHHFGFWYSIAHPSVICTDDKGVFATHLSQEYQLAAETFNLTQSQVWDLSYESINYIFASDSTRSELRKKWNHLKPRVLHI
UniProt Q6SJ96: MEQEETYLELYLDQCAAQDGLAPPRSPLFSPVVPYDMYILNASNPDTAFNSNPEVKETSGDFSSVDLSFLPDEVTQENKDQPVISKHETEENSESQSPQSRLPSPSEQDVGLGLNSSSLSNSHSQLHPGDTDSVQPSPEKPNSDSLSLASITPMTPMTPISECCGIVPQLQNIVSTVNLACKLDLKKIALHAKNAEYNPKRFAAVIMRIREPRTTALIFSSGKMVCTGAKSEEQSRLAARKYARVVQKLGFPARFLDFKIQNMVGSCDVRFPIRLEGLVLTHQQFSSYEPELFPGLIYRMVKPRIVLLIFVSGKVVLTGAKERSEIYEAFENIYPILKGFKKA
UniProt Q6ICB0: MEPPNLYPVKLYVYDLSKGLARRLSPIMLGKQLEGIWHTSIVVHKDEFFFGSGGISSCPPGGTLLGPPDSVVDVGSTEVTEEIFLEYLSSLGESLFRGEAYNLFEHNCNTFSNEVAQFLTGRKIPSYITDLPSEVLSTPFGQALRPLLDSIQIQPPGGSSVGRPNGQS
UniProt Q64LD2: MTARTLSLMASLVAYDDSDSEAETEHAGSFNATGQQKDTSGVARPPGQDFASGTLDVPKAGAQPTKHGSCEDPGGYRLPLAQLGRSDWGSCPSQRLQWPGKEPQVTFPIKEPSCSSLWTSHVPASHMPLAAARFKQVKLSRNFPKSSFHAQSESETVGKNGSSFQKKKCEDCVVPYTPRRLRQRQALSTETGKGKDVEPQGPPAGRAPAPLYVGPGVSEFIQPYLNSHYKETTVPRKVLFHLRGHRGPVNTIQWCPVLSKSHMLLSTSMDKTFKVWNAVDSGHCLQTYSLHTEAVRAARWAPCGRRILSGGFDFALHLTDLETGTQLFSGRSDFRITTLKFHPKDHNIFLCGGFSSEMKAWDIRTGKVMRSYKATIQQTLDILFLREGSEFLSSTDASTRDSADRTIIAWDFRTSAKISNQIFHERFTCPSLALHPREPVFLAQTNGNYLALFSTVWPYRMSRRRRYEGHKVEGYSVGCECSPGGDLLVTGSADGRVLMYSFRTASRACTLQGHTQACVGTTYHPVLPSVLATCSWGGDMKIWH
UniProt Q69YL0: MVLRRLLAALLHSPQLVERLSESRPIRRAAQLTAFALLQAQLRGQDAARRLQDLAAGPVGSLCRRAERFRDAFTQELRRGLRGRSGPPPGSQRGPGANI
UniProt Q676U5: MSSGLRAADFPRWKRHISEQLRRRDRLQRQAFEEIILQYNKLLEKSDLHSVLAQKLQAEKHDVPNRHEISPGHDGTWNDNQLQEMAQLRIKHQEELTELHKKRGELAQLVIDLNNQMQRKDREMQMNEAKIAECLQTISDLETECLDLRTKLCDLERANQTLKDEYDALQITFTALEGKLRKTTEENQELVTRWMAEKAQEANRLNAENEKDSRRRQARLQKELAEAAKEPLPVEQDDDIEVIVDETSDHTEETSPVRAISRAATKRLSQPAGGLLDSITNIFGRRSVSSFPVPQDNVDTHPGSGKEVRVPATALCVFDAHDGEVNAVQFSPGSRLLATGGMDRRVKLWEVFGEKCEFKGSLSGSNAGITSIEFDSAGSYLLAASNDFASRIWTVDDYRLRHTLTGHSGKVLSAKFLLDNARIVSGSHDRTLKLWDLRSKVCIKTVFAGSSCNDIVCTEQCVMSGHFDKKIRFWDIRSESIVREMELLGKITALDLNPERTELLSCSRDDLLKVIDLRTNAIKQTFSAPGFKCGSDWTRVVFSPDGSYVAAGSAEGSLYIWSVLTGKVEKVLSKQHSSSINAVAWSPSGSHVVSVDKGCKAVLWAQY
UniProt Q6GQQ9: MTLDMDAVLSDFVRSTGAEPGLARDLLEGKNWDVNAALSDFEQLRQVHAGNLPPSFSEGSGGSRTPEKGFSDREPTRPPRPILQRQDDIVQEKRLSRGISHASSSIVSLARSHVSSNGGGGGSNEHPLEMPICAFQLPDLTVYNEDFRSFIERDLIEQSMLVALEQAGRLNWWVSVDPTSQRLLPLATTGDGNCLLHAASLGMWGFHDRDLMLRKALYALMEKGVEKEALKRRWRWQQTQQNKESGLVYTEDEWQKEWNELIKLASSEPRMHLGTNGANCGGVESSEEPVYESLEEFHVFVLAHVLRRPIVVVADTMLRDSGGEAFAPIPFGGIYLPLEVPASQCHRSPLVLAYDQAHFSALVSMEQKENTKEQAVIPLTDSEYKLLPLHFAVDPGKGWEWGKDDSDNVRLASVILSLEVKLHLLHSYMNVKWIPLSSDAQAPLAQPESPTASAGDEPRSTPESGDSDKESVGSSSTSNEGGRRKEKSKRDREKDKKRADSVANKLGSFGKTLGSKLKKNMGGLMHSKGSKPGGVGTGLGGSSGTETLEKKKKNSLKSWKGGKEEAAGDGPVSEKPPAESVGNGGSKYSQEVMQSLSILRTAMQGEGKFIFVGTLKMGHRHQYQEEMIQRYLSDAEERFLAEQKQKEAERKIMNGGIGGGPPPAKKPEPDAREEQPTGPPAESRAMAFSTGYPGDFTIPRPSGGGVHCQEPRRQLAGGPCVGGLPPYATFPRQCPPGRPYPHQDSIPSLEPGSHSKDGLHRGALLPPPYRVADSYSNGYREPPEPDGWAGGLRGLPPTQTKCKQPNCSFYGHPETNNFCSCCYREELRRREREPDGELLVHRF
UniProt Q6IBS0: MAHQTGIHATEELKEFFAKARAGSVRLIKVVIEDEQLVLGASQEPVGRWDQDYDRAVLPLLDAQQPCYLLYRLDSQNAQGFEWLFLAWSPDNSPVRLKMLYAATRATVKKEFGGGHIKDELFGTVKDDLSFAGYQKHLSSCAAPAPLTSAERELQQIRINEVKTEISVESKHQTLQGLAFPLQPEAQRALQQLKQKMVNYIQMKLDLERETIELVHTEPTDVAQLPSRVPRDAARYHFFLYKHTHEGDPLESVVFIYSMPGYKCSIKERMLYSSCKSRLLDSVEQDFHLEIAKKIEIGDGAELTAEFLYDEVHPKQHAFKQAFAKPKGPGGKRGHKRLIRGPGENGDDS
UniProt Q6NZY4: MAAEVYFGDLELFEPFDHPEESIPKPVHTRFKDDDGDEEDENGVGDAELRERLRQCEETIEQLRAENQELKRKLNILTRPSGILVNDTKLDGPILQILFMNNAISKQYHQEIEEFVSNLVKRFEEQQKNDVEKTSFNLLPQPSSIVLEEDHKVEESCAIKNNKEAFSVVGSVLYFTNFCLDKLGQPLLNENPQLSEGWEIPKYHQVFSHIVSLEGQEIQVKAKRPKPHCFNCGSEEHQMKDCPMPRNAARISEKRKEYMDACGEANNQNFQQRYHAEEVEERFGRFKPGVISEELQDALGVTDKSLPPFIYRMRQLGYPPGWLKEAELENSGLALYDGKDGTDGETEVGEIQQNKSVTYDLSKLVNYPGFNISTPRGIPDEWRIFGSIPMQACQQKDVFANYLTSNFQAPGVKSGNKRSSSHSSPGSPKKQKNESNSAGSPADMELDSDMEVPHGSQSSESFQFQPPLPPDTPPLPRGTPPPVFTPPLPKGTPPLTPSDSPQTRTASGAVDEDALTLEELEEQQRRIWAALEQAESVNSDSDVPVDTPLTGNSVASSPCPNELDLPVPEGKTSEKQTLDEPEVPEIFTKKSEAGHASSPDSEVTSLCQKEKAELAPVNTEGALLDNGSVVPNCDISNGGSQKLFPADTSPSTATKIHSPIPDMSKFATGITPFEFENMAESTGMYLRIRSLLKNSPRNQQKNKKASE
UniProt Q6NUM6: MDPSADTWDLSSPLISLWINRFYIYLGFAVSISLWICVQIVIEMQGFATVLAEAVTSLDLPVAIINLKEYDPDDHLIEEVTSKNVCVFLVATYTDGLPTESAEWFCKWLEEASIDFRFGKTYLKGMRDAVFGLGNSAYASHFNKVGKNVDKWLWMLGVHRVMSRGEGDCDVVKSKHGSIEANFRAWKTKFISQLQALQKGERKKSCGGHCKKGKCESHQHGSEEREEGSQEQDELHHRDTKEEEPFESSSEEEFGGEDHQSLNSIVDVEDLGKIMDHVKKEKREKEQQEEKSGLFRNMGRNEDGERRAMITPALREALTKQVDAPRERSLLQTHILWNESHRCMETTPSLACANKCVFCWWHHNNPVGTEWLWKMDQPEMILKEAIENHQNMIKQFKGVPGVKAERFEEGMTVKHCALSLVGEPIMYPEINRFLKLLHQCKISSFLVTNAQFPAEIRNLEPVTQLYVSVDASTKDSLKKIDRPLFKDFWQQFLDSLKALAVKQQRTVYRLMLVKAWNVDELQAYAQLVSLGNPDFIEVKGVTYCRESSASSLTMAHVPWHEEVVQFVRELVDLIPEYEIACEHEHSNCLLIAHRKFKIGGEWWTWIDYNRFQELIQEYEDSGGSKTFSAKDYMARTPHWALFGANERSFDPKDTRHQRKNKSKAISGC
UniProt Q6UX04: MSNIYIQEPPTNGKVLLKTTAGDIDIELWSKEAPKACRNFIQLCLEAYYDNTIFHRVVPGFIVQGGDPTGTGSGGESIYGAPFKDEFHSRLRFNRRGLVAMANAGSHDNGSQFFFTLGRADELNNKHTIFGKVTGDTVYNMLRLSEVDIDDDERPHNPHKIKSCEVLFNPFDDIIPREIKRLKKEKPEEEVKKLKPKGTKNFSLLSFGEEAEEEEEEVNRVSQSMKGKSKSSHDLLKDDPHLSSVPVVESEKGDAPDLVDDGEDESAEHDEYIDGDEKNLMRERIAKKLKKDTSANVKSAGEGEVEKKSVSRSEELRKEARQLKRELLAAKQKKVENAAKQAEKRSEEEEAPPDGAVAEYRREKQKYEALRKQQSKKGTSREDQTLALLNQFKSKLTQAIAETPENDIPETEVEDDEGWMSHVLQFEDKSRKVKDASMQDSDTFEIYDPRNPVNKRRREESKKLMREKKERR
UniProt Q6ICL3: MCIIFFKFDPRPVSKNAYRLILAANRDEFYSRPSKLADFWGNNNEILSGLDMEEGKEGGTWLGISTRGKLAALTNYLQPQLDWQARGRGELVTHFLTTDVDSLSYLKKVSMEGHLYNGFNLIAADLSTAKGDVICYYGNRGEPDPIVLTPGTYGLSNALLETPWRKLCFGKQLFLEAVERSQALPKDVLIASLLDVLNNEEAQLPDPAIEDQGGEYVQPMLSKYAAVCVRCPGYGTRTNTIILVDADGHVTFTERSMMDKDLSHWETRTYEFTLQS
UniProt Q6IEG0: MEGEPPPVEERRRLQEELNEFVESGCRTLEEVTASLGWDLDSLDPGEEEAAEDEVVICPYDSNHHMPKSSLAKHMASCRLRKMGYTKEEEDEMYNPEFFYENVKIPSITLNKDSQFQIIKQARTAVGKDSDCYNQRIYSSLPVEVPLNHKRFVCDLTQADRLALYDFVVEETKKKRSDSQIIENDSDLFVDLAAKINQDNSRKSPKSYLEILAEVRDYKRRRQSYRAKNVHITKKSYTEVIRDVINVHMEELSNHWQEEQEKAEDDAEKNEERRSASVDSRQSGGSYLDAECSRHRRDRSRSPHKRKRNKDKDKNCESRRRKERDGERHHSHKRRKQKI

Some of the results follow. Most entries show no effect beyond the scatter of the controls.

Compound in the experiment: CN[C@@H]1C[C@H]2O[C@@](C)([C@@H]1OC)n1c3ccccc3c3c4c(c5c6ccccc6n2c5c31)C(=O)NC4 [staurosporine]
The experiment can be described thus: log2 fold change of tryptic peptide abundance, ligand vs vehicle (limited proteolysis) (log2 ratio); higher = more trypsin-susceptible (destabilized). Conditions: ligand concentration: 20 uM; sample: K562 cleared lysate; digestion: 4 min, 22 C (HT-PELSA RT4min, Orbitrap Astral).
Take “GIGYF2 (peptide sequence: WRPHSPDGPR, peptide start residue: 232) (UniProt Q6Y7W6)”: the log2 fold change stood at 0.443. In the case of “TMEM205 (peptide sequence: GLGGEVPGSHQGPDPYR, peptide start residue: 125) (UniProt Q6UW68)”, the log2 fold change is -0.0869.

With “UniProt Q6EEV6 (peptide sequence: VAGQDGSVVQFK, peptide start residue: 22)”, the log2 fold change was -0.0301.

Regarding “ARID2 (peptide sequence: AIVNHPSAALMALRR, peptide start residue: 1732) (UniProt Q68CP9)”, the log2 fold change is 0.416. For the target “FAAP20 (peptide sequence: LLHGAGGHLESPAR, peptide start residue: 103) (UniProt Q6NZ36)”, the log2 fold change is 0.373. As for “MRM1 (peptide sequence: SEGLSMAQHPGLSSGPEKER, peptide start residue: 330) (UniProt Q6IN84)”, the figure is 0.136; as for “SMARCD3 (peptide sequence: KLDQTIMR, peptide start residue: 156) (UniProt Q6STE5)”, 0.101. As for “TMED8 (peptide sequence: ATGPLEAQALVK, peptide start residue: 84) (UniProt Q6PL24)”, the figure is -0.114.

As to “ADAL (peptide sequence: GGPLVAK, peptide start residue: 151) (UniProt Q6DHV7)”, the log2 fold change is -0.291.

“TET2 (peptide sequence: NLLDTPVK, peptide start residue: 1118) (UniProt Q6N021)”: the log2 fold change is -0.439. Consider “MTHFD1L (peptide sequence: GSMTMSIQWK, peptide start residue: 244) (UniProt Q6UB35)”, for which the log2 fold change is -0.361. Turning to “UniProt Q6SJ96 (peptide sequence: IVLLIFVSGK, peptide start residue: 300)”, the log2 fold change is -0.0792. Regarding “DHX57 (peptide sequence: HFDSPYLLYHEK, peptide start residue: 1275) (UniProt Q6P158)”, the log2 fold change was -0.641.

As to “UniProt Q5VZ66 (peptide sequence: EQLQAEVQR, peptide start residue: 537)”, the log2 fold change turned out to be 0.368. As for “UniProt Q6ICB0 (peptide sequence: LSPIMLGK, peptide start residue: 24)”, the figure is -0.384; as for “MAP1S (peptide sequence: AVPMAPAPASPGSSNDSSAR, peptide start residue: 750) (UniProt Q66K74)”, -0.33; as for “ANKRD40 (peptide sequence: GEMPVQLTSR, peptide start residue: 77) (UniProt Q6AI12)”, -0.233. As for “KLHL17 (peptide sequence: DFLLGHVDAESLVR, peptide start residue: 289) (UniProt Q6TDP4)”, the figure is 0.382; as for “PRPF8 (peptide sequence: QRVESHFDLELR, peptide start residue: 675) (UniProt Q6P2Q9)”, -0.175; as for “UniProt Q64LD2 (peptide sequence: KKCEDCVVPYTPR, peptide start residue: 167)”, 0.369.

Turning to “NCBP2AS2 (peptide sequence: LLAALLHSPQLVER, peptide start residue: 6) (UniProt Q69YL0)”, the log2 fold change turned out to be 0.169. As for “ATG16L1 (peptide sequence: HQEELTELHKK, peptide start residue: 92) (UniProt Q676U5)”, the figure is -0.468. Under “UniProt Q6NX49 (peptide sequence: AREELSHHVEVYR, peptide start residue: 99)” stands 0.364; under “UniProt Q6NW29 (peptide sequence: KLADKTDHK, peptide start residue: 155)”, -0.348. With “OTUD7B (peptide sequence: NMGGLMHSK, peptide start residue: 520) (UniProt Q6GQQ9)”, the log2 fold change came to 1.52. As for “TWF2 (peptide sequence: TEISVESK, peptide start residue: 164) (UniProt Q6IBS0)”, the figure is -0.0672; as for “DENND1B (peptide sequence: FCFPFDVER, peptide start residue: 51) (UniProt Q6P3S1)”, 0.914. As for “ZCCHC8 (peptide sequence: LFPADTSPSTATK, peptide start residue: 643) (UniProt Q6NZY4)”, the figure is -0.112; as for “RPL7L1 (peptide sequence: IERIDGVSLLVQR, peptide start residue: 102) (UniProt Q6DKI1)”, 0.182. “UniProt Q6P9F0 (peptide sequence: SALREDETESSSNK, peptide start residue: 585)”: the log2 fold change was -1.02.

In the case of “UniProt Q6NUM6 (peptide sequence: AMITPALR, peptide start residue: 354)”, the log2 fold change was -0.149. As for “UniProt Q6AHZ1 (peptide sequence: INIPNEVLLK, peptide start residue: 55)”, the figure is 0.208; as for “UniProt Q6UX04 (peptide sequence: SEEEEAPPDGAVAEYR, peptide start residue: 346)”, -0.365. As for “UniProt Q6ICL3 (peptide sequence: GDVICYYGNR, peptide start residue: 131)”, the figure is -0.137; as for “NIPBL (peptide sequence: TGVHFHPK, peptide start residue: 2584) (UniProt Q6KC79)”, 0.96; as for “SNRNP48 (peptide sequence: FVCDLTQADR, peptide start residue: 152) (UniProt Q6IEG0)”, 0.228. Under “UniProt Q6PEY2 (peptide sequence: LIGQIVSSITASLR, peptide start residue: 230)” stands -0.247.
